The results in this text go back to the supplement of paper PMC12819154, “High-throughput peptide-centric local stability assay extends protein–ligand identification to membrane proteins, tissues and bacteria” (Nature Structural & Molecular Biology, 2025).

Protein sequences, listed by entry. Tags and fused reporters are not part of them. Lines headed by an entry give the natural chain unless they say otherwise; changes in a name come on top.
UniProt Q96D53: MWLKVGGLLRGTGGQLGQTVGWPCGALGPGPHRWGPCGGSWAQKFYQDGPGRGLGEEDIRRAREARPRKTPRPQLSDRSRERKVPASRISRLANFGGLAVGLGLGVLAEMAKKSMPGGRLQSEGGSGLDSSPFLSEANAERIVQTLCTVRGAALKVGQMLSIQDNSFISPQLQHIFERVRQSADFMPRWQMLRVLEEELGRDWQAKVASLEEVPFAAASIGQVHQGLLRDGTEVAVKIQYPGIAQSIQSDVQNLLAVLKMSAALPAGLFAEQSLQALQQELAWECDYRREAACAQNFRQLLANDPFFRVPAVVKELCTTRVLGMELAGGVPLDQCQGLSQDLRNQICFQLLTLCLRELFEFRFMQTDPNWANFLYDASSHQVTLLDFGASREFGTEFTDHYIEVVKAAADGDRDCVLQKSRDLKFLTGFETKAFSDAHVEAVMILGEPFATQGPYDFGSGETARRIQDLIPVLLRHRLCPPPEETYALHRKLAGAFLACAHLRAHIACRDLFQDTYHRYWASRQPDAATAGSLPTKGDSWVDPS
UniProt Q96A37: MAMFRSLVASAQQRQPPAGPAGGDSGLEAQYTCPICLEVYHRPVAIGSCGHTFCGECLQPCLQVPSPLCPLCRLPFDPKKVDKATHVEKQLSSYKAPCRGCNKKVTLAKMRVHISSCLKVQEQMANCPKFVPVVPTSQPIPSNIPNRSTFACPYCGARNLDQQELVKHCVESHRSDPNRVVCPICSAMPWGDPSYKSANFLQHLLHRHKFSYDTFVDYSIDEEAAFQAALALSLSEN
UniProt Q96EP5: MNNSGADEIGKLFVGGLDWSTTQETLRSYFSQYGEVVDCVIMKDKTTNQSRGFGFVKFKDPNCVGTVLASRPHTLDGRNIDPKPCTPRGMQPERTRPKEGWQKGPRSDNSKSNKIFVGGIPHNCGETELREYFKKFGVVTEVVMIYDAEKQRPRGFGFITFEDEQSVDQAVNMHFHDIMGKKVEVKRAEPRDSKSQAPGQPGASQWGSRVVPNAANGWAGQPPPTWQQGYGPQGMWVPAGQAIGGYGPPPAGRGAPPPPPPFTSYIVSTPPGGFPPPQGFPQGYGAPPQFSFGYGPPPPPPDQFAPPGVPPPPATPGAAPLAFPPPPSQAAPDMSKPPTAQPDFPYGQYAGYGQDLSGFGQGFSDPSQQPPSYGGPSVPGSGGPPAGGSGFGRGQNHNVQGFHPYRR
UniProt Q969V6: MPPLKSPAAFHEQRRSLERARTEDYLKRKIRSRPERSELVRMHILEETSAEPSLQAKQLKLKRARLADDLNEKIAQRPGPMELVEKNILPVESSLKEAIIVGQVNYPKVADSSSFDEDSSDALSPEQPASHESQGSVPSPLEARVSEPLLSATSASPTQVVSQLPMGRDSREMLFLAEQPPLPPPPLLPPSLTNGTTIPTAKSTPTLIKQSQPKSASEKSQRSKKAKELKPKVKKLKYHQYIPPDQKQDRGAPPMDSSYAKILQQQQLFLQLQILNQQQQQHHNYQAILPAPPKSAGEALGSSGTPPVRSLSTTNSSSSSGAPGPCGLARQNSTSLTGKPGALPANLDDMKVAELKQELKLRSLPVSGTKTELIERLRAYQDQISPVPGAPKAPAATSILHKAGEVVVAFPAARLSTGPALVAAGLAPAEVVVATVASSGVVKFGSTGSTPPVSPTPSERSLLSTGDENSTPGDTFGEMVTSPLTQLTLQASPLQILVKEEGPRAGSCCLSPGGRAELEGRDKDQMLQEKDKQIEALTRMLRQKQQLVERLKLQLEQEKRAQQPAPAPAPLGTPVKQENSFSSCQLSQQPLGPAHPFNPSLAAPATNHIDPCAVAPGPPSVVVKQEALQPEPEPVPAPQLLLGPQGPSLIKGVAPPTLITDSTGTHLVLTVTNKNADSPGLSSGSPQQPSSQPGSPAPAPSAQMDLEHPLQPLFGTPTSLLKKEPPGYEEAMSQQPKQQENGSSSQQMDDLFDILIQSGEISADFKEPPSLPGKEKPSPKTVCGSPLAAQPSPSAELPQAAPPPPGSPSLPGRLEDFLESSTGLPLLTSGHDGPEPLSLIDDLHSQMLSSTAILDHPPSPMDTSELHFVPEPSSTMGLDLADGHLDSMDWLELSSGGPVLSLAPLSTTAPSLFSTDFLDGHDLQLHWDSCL
UniProt Q92674: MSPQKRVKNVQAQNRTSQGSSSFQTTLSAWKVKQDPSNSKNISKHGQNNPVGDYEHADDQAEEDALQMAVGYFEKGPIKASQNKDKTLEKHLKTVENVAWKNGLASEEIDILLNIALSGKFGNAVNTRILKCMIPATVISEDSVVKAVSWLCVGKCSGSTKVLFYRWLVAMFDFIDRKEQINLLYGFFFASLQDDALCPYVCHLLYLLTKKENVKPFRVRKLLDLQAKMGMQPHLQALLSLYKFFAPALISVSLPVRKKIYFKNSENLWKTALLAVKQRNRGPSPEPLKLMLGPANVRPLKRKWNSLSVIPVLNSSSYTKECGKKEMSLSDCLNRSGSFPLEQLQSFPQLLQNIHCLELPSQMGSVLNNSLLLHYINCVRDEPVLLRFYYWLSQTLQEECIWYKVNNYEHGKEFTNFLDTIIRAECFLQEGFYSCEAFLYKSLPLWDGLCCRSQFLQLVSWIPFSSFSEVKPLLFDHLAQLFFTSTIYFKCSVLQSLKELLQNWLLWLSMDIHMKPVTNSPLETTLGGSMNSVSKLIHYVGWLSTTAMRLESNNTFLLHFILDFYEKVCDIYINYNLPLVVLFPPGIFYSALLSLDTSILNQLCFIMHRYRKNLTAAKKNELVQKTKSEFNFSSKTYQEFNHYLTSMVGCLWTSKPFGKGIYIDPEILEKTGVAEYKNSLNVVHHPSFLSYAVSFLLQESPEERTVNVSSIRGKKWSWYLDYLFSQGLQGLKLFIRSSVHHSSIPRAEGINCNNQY
UniProt Q92934: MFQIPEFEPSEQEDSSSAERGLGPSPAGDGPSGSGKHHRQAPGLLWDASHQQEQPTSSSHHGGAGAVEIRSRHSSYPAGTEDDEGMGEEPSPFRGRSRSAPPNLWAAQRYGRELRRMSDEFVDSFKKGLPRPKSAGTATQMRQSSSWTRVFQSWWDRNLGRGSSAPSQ
UniProt Q92995: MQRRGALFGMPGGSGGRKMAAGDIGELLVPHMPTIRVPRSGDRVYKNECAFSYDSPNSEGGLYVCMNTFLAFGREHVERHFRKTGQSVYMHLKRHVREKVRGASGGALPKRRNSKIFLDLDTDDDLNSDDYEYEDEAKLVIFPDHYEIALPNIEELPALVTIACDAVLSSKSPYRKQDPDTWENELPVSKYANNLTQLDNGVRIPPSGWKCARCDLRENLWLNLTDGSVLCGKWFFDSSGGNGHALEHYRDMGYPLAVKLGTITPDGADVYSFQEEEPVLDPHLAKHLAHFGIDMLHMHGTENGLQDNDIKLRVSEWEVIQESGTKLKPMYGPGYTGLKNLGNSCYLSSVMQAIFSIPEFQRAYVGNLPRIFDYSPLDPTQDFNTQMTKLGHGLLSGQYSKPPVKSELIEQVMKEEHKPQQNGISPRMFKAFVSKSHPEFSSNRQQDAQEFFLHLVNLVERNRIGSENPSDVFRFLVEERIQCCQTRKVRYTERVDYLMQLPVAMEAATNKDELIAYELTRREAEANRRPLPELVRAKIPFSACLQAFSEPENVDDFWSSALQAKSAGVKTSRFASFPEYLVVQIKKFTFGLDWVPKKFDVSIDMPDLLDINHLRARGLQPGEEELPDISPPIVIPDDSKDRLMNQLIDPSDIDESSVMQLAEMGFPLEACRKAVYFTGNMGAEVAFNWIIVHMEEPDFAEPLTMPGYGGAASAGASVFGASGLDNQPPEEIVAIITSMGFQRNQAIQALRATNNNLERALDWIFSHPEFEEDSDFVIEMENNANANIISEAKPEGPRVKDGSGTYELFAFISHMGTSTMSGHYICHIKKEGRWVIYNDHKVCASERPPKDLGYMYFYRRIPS
UniProt Q96B45: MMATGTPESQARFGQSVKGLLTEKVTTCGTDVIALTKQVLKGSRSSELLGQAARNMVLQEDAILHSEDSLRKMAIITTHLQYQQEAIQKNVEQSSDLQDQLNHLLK
UniProt Q96BU1: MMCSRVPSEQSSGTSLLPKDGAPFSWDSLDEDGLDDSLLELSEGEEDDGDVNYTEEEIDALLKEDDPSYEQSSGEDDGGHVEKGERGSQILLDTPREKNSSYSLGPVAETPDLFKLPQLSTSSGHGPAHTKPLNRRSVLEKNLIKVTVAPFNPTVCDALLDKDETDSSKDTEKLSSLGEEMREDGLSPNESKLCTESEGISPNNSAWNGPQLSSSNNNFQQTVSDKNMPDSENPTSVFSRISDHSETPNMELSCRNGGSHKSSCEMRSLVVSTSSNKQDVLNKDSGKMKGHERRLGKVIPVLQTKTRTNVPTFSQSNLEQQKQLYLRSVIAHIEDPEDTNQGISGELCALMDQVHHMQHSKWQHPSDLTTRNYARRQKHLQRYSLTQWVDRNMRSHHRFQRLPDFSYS
UniProt Q96C12: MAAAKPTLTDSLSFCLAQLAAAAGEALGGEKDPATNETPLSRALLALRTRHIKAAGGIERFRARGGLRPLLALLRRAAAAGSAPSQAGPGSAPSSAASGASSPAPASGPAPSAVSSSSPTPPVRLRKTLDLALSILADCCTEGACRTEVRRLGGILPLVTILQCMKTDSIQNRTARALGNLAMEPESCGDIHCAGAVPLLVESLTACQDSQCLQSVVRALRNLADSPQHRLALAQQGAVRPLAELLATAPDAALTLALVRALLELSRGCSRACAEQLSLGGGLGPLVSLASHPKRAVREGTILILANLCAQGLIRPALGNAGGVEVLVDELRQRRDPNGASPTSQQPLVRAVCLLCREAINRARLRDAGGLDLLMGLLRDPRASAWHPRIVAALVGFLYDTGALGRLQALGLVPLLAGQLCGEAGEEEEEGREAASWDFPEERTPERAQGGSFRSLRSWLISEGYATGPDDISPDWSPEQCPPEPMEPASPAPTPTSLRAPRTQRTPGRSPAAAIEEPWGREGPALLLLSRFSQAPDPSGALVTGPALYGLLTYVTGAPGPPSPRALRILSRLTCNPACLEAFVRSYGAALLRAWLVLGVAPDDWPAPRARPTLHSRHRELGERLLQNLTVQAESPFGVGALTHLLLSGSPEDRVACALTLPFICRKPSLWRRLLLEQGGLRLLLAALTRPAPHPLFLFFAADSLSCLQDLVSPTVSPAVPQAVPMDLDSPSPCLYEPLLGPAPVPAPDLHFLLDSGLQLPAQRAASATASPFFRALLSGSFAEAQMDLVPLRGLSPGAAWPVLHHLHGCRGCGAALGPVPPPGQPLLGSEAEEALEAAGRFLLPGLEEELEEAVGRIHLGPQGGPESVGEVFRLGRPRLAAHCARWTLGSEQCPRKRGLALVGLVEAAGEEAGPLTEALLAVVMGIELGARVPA
UniProt Q96CP2: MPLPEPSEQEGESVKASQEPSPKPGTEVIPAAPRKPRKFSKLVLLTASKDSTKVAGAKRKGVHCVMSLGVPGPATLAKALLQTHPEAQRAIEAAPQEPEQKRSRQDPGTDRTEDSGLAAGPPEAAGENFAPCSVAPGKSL
UniProt Q93073: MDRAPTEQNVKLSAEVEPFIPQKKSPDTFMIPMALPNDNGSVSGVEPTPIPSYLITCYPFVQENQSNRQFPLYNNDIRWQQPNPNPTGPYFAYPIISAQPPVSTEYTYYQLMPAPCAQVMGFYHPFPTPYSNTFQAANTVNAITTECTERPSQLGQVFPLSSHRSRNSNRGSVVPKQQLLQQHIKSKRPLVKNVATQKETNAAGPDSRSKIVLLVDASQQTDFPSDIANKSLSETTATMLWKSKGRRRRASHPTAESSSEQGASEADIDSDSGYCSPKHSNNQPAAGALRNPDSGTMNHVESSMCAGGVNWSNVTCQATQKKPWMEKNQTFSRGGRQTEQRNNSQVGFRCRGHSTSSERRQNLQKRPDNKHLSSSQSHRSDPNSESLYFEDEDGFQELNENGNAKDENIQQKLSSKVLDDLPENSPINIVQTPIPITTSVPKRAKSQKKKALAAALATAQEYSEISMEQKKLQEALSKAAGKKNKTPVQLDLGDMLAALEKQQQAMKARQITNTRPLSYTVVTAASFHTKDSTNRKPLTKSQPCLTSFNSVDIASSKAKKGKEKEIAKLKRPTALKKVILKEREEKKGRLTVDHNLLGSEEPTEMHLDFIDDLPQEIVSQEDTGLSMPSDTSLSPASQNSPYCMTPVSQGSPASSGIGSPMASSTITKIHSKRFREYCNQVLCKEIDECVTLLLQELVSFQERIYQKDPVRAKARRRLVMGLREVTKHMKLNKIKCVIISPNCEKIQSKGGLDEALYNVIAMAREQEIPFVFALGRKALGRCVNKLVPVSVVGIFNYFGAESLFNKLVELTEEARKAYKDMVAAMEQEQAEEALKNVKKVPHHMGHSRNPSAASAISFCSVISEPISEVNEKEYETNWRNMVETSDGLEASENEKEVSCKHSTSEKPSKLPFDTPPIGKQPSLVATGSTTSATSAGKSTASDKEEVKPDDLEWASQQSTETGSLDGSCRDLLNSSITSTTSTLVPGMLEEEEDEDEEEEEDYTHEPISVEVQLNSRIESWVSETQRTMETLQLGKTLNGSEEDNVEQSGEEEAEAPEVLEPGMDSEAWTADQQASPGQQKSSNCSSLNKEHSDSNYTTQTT

The other results are listed elsewhere or left out. Most values lie at the level of the controls, where differences are scatter.

Compound in the test: Cc1nc(Nc2ncc(C(=O)Nc3c(C)cccc3Cl)s2)cc(N2CCN(CCO)CC2)n1 [dasatinib]
Kind of test: log2 fold change of tryptic peptide abundance, ligand vs vehicle (limited proteolysis) (log2 ratio); higher = more trypsin-susceptible (destabilized). Conditions: ligand concentration: 5 uM; sample: K562 cleared lysate.
Regarding “UniProt Q96D53 (peptide sequence: EFGTEFTDHYIEVVK, peptide start residue: 392)”, the log2 fold change was -0.279.
On to “LRRC59 (peptide sequence: AVQADQER, peptide start residue: 150) (UniProt Q96AG4)”, for which the log2 fold change was -0.502.
Consider “UniProt Q96DB5 (peptide sequence: ALEKNESSFASHK, peptide start residue: 153)”, for which the log2 fold change is -0.351.
On to “RNF166 (peptide sequence: SANFLQHLLHR, peptide start residue: 197) (UniProt Q96A37)”, for which the log2 fold change was 0.345.
Regarding “MMAB (peptide sequence: RVVPLVQMGETDANVAK, peptide start residue: 195) (UniProt Q96EY8)”, the log2 fold change stood at 0.189.
On to “MRPL38 (peptide sequence: TQQLLER, peptide start residue: 100) (UniProt Q96DV4)”, for which the log2 fold change is 0.217.
As for “DAZAP1 (peptide sequence: DSKSQAPGQPGASQWGSR, peptide start residue: 192) (UniProt Q96EP5)”, the log2 fold change was determined as 0.263.
With “RUBCN (peptide sequence: NLLPMYQEAEHGSFR, peptide start residue: 550) (UniProt Q92622)”, the log2 fold change worked out at 0.161.
Consider “UniProt Q969V6 (peptide sequence: DKQIEALTR, peptide start residue: 531)”, for which the log2 fold change is 0.36.
“USP7 (peptide sequence: VFYELQHSDKPVGTKK, peptide start residue: 263) (UniProt Q93009)”: the log2 fold change came out at 0.645.
Turning to “UniProt Q96EM0 (peptide sequence: GLLELNQMR, peptide start residue: 288)”, the log2 fold change was -0.181.
In the case of “HPS3 (peptide sequence: VHHHPHK, peptide start residue: 221) (UniProt Q969F9)”, the log2 fold change was -0.21.
Consider “CCDC124 (peptide sequence: AKSHLEVPLEENVNRR, peptide start residue: 120) (UniProt Q96CT7)”, for which the log2 fold change was -0.25.
As to “KAT5 (peptide sequence: SHDDIVTR, peptide start residue: 221) (UniProt Q92993)”, the log2 fold change was 0.115.
In the case of “UniProt Q92831 (peptide sequence: GKPVVEGSLEK, peptide start residue: 202)” it was 0.214; in that of “AKT1S1 (peptide sequence: SLPVSVPVWGFKEK, peptide start residue: 183) (UniProt Q96B36)”, 0.225; in that of “RFK (peptide sequence: IKEDNFFQVSK, peptide start residue: 138) (UniProt Q969G6)”, -0.0973.
For “UniProt Q92674 (peptide sequence: GIYIDPEILEK, peptide start residue: 660)”, the log2 fold change was -0.125.
Next, “ZMYND19 (peptide sequence: MEVDADGNGAK, peptide start residue: 40) (UniProt Q96E35)”: 0.164; “BAD (peptide sequence: VFQSWWDR, peptide start residue: 150) (UniProt Q92934)”: 0.257.
For the target “UniProt Q96CJ1 (peptide sequence: IPDIDASHNR, peptide start residue: 224)”, the log2 fold change was -0.183.
For the target “RIT1 (peptide sequence: TDDTPVVLVGNK, peptide start residue: 124) (UniProt Q92963)”, the log2 fold change was -0.39.
Next, “USP13 (peptide sequence: KFTFGLDWVPK, peptide start residue: 575) (UniProt Q92995)”: -0.182.
Consider “UniProt Q96B45 (peptide sequence: NMVLQEDAILHSEDSLR, peptide start residue: 55)”, for which the log2 fold change is 0.257.
Regarding “RSC1A1 (peptide sequence: ASAEFQLNSEKK, peptide start residue: 58) (UniProt Q92681)”, the log2 fold change was -0.417.
On to “S100PBP (peptide sequence: SLVVSTSSNK, peptide start residue: 268) (UniProt Q96BU1)”, for which the log2 fold change came out at 0.311.
For “RNF31 (peptide sequence: SCEDFQNWK, peptide start residue: 840) (UniProt Q96EP0)”, the log2 fold change was -0.252.
For the target “ERCC4 (peptide sequence: EGRDETNLDLVR, peptide start residue: 647) (UniProt Q92889)”, the log2 fold change is -0.0988.
With “UniProt Q96AX9 (peptide sequence: MAEFIGQTGTVHR, peptide start residue: 286)”, the log2 fold change is 0.511.
Turning to “ADAT3 (peptide sequence: LLKEVSALHPLPAQPHLKR, peptide start residue: 59) (UniProt Q96EY9)”, the log2 fold change was -0.49.
On to “ARMC5 (peptide sequence: EGPALLLLSR, peptide start residue: 522) (UniProt Q96C12)”, for which the log2 fold change was found to be 0.122.
For the target “THAP11 (peptide sequence: LLAMAVIR, peptide start residue: 302) (UniProt Q96EK4)”, the log2 fold change was -0.144.
As to “RABGGTA (peptide sequence: TSEEQAEAKR, peptide start residue: 9) (UniProt Q92696)”, the log2 fold change was -0.973.
Next, “DCPS (peptide sequence: DKIIFLHGK, peptide start residue: 59) (UniProt Q96C86)”: 0.188.
On to “RREB1 (peptide sequence: SGTQPHAATR, peptide start residue: 567) (UniProt Q92766)”, for which the log2 fold change turned out to be 0.338.
Turning to “FLYWCH2 (peptide sequence: KGVHCVMSLGVPGPATLAK, peptide start residue: 60) (UniProt Q96CP2)”, the log2 fold change amounted to 0.165.
As to “SECISBP2L (peptide sequence: EYETNWR, peptide start residue: 873) (UniProt Q93073)”, the log2 fold change is 0.414.
Consider “GTPBP3 (peptide sequence: SSLVNLLSR, peptide start residue: 263) (UniProt Q969Y2)”, for which the log2 fold change amounted to 0.177.
